Experimental data reported in patent US11401247B2, “Thiazole-5-carboxylic acid derivative and preparation method and use thereof” (XIANGBEI WELMAN PHARMACEUTICAL CO., LTD, priority 2018, dated 2022).
Some results were stated once for a whole list of compounds, not compound by compound. At least one structure is not confirmed: it was looked up by name or label, or the drawing left a doubt.

system: hyperuricemia rats; assay: pharmacodynamic screening in rat hyperuricemia model (exogenous uric acid administered, uric acid decomposition inhibited); assay type: in vivo, SD rats; settings: F compounds 10 mg/kg, febuxostat 14 mg/kg oral

SMILES | p, uric acid level 3 h after drug administration compared with the blank group
Cc1nc(-c2ccc(OCC(C)C)c(C#N)c2)sc1C(=O)OCCO [Compound F-1A] | < 0.05
Cc1nc(-c2ccc(OCC(C)C)c(C#N)c2)sc1C(=O)NC(C)C(=O)O (stereo not shown) [Compound F-2B] | < 0.05
Cc1nc(-c2ccc(OCC(C)C)c(C#N)c2)sc1C(=O)NC(CC(=O)O)C(=O)O (stereo not shown) [Compound F-2C] | < 0.05
Cc1nc(-c2ccc(OCC(C)C)c(C#N)c2)sc1C(=O)NC1C(O)OC(CO)C(O)C1O (stereo not shown) [Compound F-4A] | < 0.05
